This is an account of results in doi:10.1101/2021.06.01.446555.

Chains of the proteins cited; added tags and fusions are not shown. Lines headed by an entry give the natural chain unless they say otherwise; changes in a name come on top.
UniProt P0DTC3, whole entry: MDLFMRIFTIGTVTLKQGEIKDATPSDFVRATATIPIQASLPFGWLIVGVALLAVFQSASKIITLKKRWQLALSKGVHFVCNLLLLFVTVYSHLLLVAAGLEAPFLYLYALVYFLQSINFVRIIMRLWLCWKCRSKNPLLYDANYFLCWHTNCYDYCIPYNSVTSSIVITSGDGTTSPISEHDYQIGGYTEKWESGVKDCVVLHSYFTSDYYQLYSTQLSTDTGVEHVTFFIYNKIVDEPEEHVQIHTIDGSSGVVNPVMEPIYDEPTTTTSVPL
UniProt Q9NQX7, whole entry, stated change not applied: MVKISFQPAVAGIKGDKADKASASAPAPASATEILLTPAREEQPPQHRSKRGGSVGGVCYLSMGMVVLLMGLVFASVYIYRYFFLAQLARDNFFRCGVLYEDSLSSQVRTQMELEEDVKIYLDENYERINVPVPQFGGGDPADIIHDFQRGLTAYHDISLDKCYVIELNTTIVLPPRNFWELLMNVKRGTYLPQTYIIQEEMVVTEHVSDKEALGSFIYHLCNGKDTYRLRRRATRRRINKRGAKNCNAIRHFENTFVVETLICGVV

No constants are given. Whether binding was seen depends on the method and setting. In cells and extracts the contact can be indirect. These calls come from enrichment with a bait or labelling near it, and not all partners need be listed.

The test has as its target ORF3a-linker-GFP (SARS-CoV-2 ORF3a tagged with GFP) (SARS-CoV-2) (UniProt P0DTC3). Put plainly: proximity labelling.
On to BET1L (from UniProt Q9NYM9 1-111), for which the binding result was “binds”.
On to EPHA2 (from UniProt P29317 24-976), for which the binding result is reported as “binds”.
Turning to ITM2C (from UniProt Q9NQX7), the binding result is recorded as “binds”.
The entry for RAB7A (from UniProt P51149 1-207) is “binds”; for “RNF5 (E3 ubiquitin ligase) (from UniProt Q99942 1-180)” it is “binds”.
In the case of SAR1A (from UniProt Q9NR31 1-198), the binding entry is recorded as “binds”.
Turning to SEC63 (from UniProt Q9UGP8 1-760), the binding result is listed as “binds”.
As for SLC16A1 (from UniProt P53985 1-500), the binding result was “binds”.
Consider SLC22A5 (from UniProt O76082 1-557), for which the binding entry is “binds”.
Take VAMP3 (from UniProt Q15836 1-100): the binding entry is “binds”.
On to “ZC3HAV1 (CCCH-type zinc-finger antiviral protein) (from UniProt Q7Z2W4 1-902)”, for which the binding result is recorded as “binds”.
